The other results are listed elsewhere or left out.
Target: ATP1B3 (UniProt P54709)
Assay: dose-dependent thermal stabilisation call (2D-TPP, DLPTP, 10% FDR) (binary (1 = stabilised)); higher = stabilised by the compound
Details: system: HL-60 intact cells; concentration range 0.04-10 µM

By UniProt entry, the sequences of proteins in these tests, tags left out.
UniProt P54709, whole entry: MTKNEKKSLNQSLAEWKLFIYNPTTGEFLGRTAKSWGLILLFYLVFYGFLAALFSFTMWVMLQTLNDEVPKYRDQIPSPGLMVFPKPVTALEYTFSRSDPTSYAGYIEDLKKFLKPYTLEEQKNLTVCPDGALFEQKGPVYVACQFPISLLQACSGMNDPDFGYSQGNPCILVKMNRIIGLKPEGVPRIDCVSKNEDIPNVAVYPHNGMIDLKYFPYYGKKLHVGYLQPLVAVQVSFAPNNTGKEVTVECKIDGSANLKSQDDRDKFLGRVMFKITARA

COc1ccc(Cn2ccc3ccc(C(=O)NO)cc32)cc1
dose-dependent thermal stabilisation call: inactive: 0
